Results are given in words; binding and its absence hold for the method and conditions named. Binding seen in cells or lysates may run through a third protein. Some results given as binding are weak or reduced against the parent protein; the word gives no strength. Sequences can lack the tags named with a protein.
T1: Myc-tagged SVCV phosphoprotein (SVCV-P) (spring viremia of carp virus (SVCV)) (UniProt Q91DS2)
T1 sequence: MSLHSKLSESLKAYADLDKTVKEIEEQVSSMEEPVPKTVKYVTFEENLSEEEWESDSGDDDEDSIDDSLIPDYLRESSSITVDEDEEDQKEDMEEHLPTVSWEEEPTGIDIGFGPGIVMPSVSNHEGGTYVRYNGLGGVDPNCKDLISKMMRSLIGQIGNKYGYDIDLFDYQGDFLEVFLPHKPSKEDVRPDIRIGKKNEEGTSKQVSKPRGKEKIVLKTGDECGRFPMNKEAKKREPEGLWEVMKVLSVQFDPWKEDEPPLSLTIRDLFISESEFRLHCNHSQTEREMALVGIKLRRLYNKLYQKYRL

Chains of the proteins cited; added tags and fusions are not shown.
UniProt A0ACM8QAS8: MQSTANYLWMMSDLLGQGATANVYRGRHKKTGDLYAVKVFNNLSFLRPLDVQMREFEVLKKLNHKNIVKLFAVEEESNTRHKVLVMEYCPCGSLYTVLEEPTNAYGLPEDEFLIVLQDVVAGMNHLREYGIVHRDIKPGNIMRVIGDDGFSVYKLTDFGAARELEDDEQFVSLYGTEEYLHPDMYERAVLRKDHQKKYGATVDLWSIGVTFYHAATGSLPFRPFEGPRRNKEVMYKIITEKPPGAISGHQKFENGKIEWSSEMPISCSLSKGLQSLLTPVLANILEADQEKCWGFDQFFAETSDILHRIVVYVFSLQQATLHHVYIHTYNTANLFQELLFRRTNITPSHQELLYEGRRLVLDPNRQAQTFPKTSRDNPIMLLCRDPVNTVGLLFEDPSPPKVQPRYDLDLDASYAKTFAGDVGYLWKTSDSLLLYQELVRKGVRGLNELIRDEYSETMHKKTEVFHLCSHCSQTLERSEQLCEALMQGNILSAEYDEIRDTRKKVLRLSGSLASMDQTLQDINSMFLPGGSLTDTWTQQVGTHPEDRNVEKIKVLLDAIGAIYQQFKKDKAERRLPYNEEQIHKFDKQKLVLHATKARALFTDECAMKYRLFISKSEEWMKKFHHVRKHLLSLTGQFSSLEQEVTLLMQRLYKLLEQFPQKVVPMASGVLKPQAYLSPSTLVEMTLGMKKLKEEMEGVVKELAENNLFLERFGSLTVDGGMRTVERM

T2: EGFP-SVCV-P full length (spring viremia of carp virus (SVCV)) (UniProt Q91DS2)
T2 sequence: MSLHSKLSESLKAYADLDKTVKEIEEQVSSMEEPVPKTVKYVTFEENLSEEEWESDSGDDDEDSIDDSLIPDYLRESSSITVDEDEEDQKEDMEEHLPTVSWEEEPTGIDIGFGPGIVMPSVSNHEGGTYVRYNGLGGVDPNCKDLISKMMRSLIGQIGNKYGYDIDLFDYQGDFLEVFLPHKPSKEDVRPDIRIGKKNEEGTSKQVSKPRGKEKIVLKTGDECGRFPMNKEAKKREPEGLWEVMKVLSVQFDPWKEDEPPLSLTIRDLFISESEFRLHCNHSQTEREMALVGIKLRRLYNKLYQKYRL


Columns and labels:
Assay in all cases: co-IP; HEK293T cells co-transfected with the two tagged plasmids; lysate incubated with tag antibody overnight at 4°C, protein A-agarose beads, Western blot; in Fig. 4G cells treated with 1,6-HEX before lysis
[1] = biological target: T1, Myc-tagged SVCV phosphoprotein (SVCV-P) (spring viremia of carp virus (SVCV))
[2] = biological target: T2, EGFP-SVCV-P full length (spring viremia of carp virus (SVCV))
[3] = biological target: EGFP-TBK1 full length (zebrafish) (zebrafish)

Row | Molecule | binding [1] | binding [2] | binding [3]
1 | Flag-tagged zebrafish TBK1 (from UniProt A0ACM8QAS8 1-727) (enzyme) | binds | binds | 
2 | HA-tagged zebrafish TBK1 (from UniProt A0ACM8QAS8 1-727) (enzyme) | binds |  | 
3 | purified recombinant SVCV-P (His-tagged) (natural protein, phosphoprotein (P) of spring viremia of carp virus; The MST methods say only 'purified SVCV-P'; the His-only construct is surmised (EGFP-GST, EGFP-His and baculovirus EGFP-His forms were also made); also called pET28a-SVCV-P-His; source: E. coli BL21 (DE3), purified (Ni-NTA)) MSLHSKLSESLKAYADLDKTVKEIEEQVSSMEEPVPKTVKYVTFEENLSEEEWESDSGDDDEDSIDDSLIPDYLRESSSITVDEDEEDQKEDMEEHLPTVSWEEEPTGIDIGFGPGIVMPSVSNHEGGTYVRYNGLGGVDPNCKDLISKMMRSLIGQIGNKYGYDIDLFDYQGDFLEVFLPHKPSKEDVRPDIRIGKKNEEGTSKQVSKPRGKEKIVLKTGDECGRFPMNKEAKKREPEGLWEVMKVLSVQFDPWKEDEPPLSLTIRDLFISESEFRLHCNHSQTEREMALVGIKLRRLYNKLYQKYRL |  |  | binds
